No constants are given. Whether binding was seen depends on the method and setting. Binding seen in cells or lysates may run through a third protein. These calls come from enrichment with a bait or labelling near it, and not all partners need be listed.
B1: SRSF3 (protein, UniProt P84104 1-164)
chain: MHRDSCPLDCKVYVGNLGNNGNKTELERAFGYYGPLRSVWVARNPPGFAFVEFEDPRDAADAVRELDGRTLCGCRVRVELSNGEKRSRNRGPPPSWGRRPRDDYRRRSPPPRRRSPRRRSFSRSRSRSLSRDRRRERSLSRERNHKPSRSFSRSRSRSRSNERK
B2: ILF3 (interleukin enhancer binding factor 3) (protein, UniProt Q9Z1X4 1-898)
chain: MRPMRIFVNDDRHVMAKHSSVYPTQEELEAVQNMVSHTERALKAVSDWIDEQEKGNSELSEAENMDTPPDDESKEGAGEQKAEHMTRTLRGVMRVGLVAKGLLLKGDLDLELVLLCKEKPTTALLDKVADNLAIQLTTVTEDKYEILQSVDDAAIVIKNTKEPPLSLTIHLTSPVVREEMEKVLAGETLSVNDPPDVLDRQKCLAALASLRHAKWFQARANGLKSCVIVIRVLRDLCTRVPTWGPLRGWPLELLCEKSIGTANRPMGAGEALRRVLECLASGIVMPDGSGIYDPCEKEATDAIGHLDRQQREDITQSAQHALRLAAFGQLHKVLGMDPLPSKMPKKPKNENPVDYTVQIPPSTTYAITPMKRPMEEDGEEKSPSKKKKKIQKKEEKADPPQAMNALMRLNQLKPGLQYKLISQTGPVHAPIFTMSVEVDGSNFEASGPSKKTAKLHVAVKVLQDMGLPTGAEGRDSSKGEDSAEESDGKPAIVAPPPVVEAVSNPSSVFPSDATTEQGPILTKHGKNPVMELNEKRRGLKYELISETGGSHDKRFVMEVEVDGQKFQGAGSNKKVAKAYAALAALEKLFPDTPLALEANKKKRTPVPVRGGPKFAAKPHNPGFGMGGPMHNEVPPPPNIRGRGRGGNIRGRGRGRGFGGANHGGGYMNAGAGYGSYGYSSNSATAGYSQFYSNGGHSGNAGGGGSGGGGGSSSYSSYYQGDSYNSPVPPKHAGKKPLHGGQQKASYSSGYQSHQGQQQPYNQSQYSSYGTPQGKQKGYGHGQGSYSSYSNSYNSPGGGGGSDYSYDSKFNYSGSGGRSGGNSYGSSGSSSYNTGSHGGYGTGSGGSSSYQGKQGGYSSQSNYSSPGSSQSYSGPASSYQSSQGGYSRNTEHSMNYQYR

Sequences of proteins named here, by UniProt entry; tags and fusion partners are left off.
UniProt Q8BX22: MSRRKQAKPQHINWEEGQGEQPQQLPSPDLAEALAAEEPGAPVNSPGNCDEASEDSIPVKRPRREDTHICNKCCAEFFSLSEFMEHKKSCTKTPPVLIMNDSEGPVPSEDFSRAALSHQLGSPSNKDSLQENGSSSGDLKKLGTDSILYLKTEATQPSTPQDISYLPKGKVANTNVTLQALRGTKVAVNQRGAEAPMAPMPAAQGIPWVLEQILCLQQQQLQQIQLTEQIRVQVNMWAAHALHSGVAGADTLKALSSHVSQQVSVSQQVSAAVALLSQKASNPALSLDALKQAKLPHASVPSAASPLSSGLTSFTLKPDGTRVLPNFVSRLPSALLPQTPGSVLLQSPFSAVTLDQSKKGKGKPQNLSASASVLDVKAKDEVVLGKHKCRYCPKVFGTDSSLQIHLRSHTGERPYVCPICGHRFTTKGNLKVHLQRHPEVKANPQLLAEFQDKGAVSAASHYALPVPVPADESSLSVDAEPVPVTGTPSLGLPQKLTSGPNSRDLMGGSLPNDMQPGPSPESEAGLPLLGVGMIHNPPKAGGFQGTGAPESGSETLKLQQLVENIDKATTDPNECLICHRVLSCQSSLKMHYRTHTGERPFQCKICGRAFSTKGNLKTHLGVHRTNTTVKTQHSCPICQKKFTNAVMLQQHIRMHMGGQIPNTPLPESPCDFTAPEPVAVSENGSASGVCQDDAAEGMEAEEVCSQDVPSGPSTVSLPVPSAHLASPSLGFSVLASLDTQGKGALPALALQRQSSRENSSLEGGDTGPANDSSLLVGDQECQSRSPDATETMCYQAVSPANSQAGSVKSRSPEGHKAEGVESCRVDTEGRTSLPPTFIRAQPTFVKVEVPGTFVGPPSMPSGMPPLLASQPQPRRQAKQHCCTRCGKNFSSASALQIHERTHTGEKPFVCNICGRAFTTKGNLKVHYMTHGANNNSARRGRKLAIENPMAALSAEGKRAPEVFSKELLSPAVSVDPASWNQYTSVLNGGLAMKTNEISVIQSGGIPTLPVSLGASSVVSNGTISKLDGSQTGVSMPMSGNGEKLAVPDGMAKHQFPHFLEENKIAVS
UniProt Q61656: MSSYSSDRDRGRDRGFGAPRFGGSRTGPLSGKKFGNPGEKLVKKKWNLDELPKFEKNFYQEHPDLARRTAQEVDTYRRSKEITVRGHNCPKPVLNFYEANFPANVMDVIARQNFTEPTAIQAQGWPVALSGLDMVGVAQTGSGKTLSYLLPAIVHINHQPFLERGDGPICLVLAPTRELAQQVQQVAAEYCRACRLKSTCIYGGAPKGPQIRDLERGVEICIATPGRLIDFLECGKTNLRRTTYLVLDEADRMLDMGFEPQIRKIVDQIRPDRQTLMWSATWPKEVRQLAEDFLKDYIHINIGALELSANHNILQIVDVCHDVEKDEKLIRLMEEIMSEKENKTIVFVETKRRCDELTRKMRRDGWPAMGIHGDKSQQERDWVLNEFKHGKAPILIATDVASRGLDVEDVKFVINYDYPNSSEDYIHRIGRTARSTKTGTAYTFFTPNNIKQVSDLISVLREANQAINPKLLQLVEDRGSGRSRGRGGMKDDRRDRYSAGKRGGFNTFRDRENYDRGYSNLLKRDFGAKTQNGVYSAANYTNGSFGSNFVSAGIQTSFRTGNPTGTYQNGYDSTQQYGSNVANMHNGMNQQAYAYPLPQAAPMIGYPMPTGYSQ
UniProt P70372: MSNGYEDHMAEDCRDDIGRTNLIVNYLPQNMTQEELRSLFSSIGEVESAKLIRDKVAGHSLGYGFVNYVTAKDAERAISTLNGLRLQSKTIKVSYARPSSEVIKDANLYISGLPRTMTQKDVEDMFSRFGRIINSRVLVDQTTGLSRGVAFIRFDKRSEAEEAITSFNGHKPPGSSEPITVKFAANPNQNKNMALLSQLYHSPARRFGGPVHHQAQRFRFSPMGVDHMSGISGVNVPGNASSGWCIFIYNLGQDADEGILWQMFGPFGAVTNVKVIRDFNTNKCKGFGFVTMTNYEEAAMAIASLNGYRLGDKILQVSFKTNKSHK
UniProt Q9CPN8: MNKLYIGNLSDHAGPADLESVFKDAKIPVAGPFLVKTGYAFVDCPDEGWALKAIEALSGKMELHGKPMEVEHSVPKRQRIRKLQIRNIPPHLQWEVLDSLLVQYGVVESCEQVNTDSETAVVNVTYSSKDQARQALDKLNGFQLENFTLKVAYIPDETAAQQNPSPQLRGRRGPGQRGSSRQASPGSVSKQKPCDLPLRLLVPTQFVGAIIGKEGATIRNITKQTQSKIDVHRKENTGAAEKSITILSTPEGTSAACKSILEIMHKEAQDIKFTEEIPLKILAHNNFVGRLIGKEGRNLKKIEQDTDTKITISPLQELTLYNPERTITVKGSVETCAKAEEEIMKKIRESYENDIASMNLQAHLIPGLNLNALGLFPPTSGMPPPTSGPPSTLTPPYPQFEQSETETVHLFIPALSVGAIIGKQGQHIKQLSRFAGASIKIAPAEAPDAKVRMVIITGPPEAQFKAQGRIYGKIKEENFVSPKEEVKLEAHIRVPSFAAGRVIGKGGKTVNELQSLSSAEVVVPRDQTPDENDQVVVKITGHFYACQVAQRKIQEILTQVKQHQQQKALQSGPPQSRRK
UniProt Q9CXY6: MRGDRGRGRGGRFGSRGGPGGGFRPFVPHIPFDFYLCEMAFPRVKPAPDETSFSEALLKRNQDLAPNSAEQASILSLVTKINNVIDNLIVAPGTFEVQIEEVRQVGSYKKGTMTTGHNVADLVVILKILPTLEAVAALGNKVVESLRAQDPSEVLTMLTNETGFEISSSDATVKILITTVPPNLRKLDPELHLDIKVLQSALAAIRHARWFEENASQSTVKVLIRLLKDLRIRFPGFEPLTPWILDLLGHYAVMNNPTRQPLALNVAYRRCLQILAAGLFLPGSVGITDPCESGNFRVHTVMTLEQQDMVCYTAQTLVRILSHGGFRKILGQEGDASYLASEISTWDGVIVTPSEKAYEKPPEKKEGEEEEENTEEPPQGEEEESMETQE
UniProt P29341: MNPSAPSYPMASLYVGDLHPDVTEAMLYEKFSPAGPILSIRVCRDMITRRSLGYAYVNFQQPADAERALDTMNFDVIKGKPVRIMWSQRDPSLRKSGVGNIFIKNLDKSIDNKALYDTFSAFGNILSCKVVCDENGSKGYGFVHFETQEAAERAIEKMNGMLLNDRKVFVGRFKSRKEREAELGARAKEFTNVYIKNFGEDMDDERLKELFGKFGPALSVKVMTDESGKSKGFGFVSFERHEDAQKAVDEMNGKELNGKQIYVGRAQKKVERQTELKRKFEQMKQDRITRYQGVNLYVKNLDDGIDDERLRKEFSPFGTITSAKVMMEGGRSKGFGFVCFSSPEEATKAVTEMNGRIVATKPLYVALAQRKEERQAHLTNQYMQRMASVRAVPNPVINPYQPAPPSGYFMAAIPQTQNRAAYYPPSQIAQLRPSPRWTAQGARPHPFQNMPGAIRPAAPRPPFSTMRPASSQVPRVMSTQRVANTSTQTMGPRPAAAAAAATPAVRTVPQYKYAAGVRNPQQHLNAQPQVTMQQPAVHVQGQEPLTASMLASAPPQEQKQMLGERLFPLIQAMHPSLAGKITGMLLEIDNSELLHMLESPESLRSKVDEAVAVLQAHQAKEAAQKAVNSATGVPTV

Biological target: T1, PLZF (mouse (endogenous in cultured murine undifferentiated spermatogonia)) (UniProt Q3UQ17)
T1 sequence: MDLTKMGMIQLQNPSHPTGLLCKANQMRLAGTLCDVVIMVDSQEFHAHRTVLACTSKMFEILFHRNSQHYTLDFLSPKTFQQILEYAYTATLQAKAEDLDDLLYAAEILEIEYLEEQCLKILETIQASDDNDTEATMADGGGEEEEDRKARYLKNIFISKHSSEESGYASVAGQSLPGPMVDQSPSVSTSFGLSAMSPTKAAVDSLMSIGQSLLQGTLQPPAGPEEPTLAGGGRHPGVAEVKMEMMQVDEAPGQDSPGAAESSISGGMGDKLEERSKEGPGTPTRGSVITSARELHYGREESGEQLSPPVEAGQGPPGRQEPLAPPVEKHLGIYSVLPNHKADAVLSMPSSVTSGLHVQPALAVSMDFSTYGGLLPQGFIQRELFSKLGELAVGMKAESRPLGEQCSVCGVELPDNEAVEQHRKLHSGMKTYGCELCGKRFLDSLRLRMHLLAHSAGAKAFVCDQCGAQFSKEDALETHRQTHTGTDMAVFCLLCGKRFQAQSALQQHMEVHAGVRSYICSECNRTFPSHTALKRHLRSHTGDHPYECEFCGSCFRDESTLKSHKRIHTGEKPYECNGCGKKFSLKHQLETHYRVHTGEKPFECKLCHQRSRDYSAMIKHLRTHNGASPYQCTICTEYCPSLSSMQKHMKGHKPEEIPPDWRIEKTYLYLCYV
Assay: affinity purification with mass spectrometry; PLZF immunoprecipitation (goat anti-PLZF, R&D AF2944, coupled to Dynabeads) from lysates of cultured wildtype murine undifferentiated spermatogonia; lysis buffer 50 mM Tris-HCl pH 8.0, 150 mM NaCl, 5 mM EDTA, 0.5% Nonidet P-40, 1 mM DTT; three independent samples

binding, binds:
SALL4 (from UniProt Q8BX22 1-1067)

Biological target: DEAD box helicase 5 (DDX5) (mouse (endogenous in cultured murine undifferentiated spermatogonia)) (UniProt Q61656)
Assay: affinity purification with mass spectrometry; DDX5 immunoprecipitation (goat anti-DDX5, Abcam ab10261, coupled to Dynabeads) from lysates of cultured wildtype murine undifferentiated spermatogonia; lysis buffer 50 mM Tris-HCl pH 8.0, 150 mM NaCl, 5 mM EDTA, 0.5% Nonidet P-40, 1 mM DTT; n = 3 independent experiments

binding, binds:
ELAVL1 (from UniProt P70372 1-326)
IGF2BP3 (from UniProt Q9CPN8 1-579)
ILF2 (from UniProt Q9CXY6 1-390)
PABP1 (from UniProt P29341 1-636)
B1
B2
